Reference: US20210369684A1 (MOUNT TAM THERAPEUTICS, INC., priority 2018, published 2021)
At least one structure is not confirmed: it was looked up by name or label, or the drawing left a doubt.

Assays:
Assay type in all cases: in vivo, mouse
[1] = test system: 6-OHDA injected mice; experiment: 6-OHDA cylinder test (motor performance, contralateral touches); conditions: 10 mg/kg, three days pre-treatment before 6-OHDA (80 μg), FIG. 2B
Experimental: An analysis of the neuroprotective effects of the compound of Formula II on motor performance was performed using the 6-OHDA cylinder test (FIG. 2A) which evaluates spontaneous motor changes associated with dopamine depletion in the striatum of 6-OHDA injected mice. […] Control mice were administered the vehicle control only. […] The data is presented in FIG. 2B as mean and standard error of the mean (SEM). Statistical analyses as compared to baseline mice were performed using the one-way Anova test (*: p<0.05; n.s.: not significant). […] Data is presented as mean and SEM. Statistical analyses were performed using One-way Anova test (*: p<0.05; ***: p<0.001. n.s.: not significant.)

[2] = test system: 6-OHDA injected mice; experiment: Anti-TH immunohistochemistry, 6-OHDA-induced neuronal loss (TH-positive somas in SN); conditions: FIG. 4A
Experimental: Immunohistochemistry analysis using anti-tyrosine hydroxylase (TH) antibody was also performed to quantify 6-OHDA-induced neuronal loss in mice injected with 6-OHDA and non-injected (control) sides of the brain. […] FIG. 4B presents the mean and standard error of the mean (SEM) as well as statistical analysis of the results.

[3] = test system: 6-OHDA injected mice; experiment: TH protein expression in 6-OHDA-treated striatum; conditions: 3 mg/kg, two-day pre-treatment, FIG. 4D
[4] = test system: 6-OHDA injected mice; experiment: Anti-TH immunohistochemistry, 6-OHDA-induced striatal denervation; conditions: FIG. 3A
Experimental: Immunohistochemistry analysis using anti-tyrosine hydroxylase (TH) antibody was performed in mouse midbrain sections to quantify 6-OHDA-induced striatal denervation in mice injected with 6-OHDA and non-injected (control) sides of the brain. […] In contrast, both the 6-OHDA/rapamycin-treated and the 6-OHDA/Formula II-treated sides of the brain show increased staining with the anti-TH antibody, as indicated by the dark shading in those figures. FIG. 3B presents the mean and standard error of the mean (SEM) of the integrated density of anti-TH antibody staining in the striatum, as well as statistical analysis of the results for the groups of mice.

CO[C@H]1C[C@@H]2CC[C@@H](C)[C@@](O)(O2)C(=O)C(=O)N2CCCC[C@H]2C(=O)O[C@H]([C@H](C)C[C@@H]2CC[C@@H](O)[C@H](OC)C2)CC(=O)[C@H](C)/C=C(\C)[C@@H](O)[C@@H](OC)C(=O)[C@H](C)C[C@H](C)/C=C/C=C/C=C/1C [rapamycin, Rapamycin, reference compound]
contralateral touches, difference from baseline (one-way Anova) [1]: significant differences from baseline
6-OHDA-induced neuronal loss (TH-positive somas, SN) compared with vehicle control [2]: decreased 6-OHDA-induced neuronal loss as compared to vehicle control
TH protein expression, difference between 6-OHDA/vehicle-treated and 6-OHDA/compound-treated striatum [3]: non-statistically significant difference
6-OHDA-induced striatal denervation (anti-TH staining) compared with vehicle control [4]: decreased 6-OHDA-induced denervation as compared to vehicle control
